# Assay results: patent US9981972B2, “N-hydroxy bicyclic hydantoin carbamates as tools for identification of serine hydrolase targets” (ABIDE THERAPEUTICS, INC., priority 2014, dated 2018)
# “Also recorded” adds a separate entry of the source. At least one compound was matched to its structure with a doubt left.
# Test system: FP-sensitive SHs in the mouse brain membrane proteome
# Assay: Gel-based competitive ABPP in vitro, mouse brain membrane proteome, anti-targets
# Type: biochemical
# Experimental: Assay Overview: The purpose of this assay was to determine whether test compounds can inhibit LYPLA1 and LYPLA2 in a complex proteomic lysate and to assess anti-target inhibition using a competitive activity-based proteomic profiling (ABPP) assay. In this assay, a complex proteome endogenously expressing LYPLA1/2 was incubated with test compound followed by reaction with a rhodamine-conjugated fluorophosphonate (FP-Rh) serine-hydrolase specific activity-based probe. The reaction products were separated by SDS-PAGE and visualized in-gel using a flatbed fluorescence scanner. The percentage activity remaining was determined by measuring the integrated optical density of the bands. […] Percent inhibition was calculated relative to a DMSO (no compound) control.
# Protocol Summary: Mouse brain membrane proteome (50 μL reaction volume, 1 mg/mL in DPBS) was treated with 0.1-100 μM test compound (1 μL of a 50× stock in DMSO) for 30 minutes at 37° C. FP-Rh (1 μL of 50× stock in DMSO, Thermo #88318) was added to a final concentration of 2 μM. The reactions were incubated for 30 minutes at 25° C., quenched with 16 μL 4×SDS-PAGE loading buffer (reducing), separated by SDS-PAGE and visualized by in-gel fluorescent scanning. The percentage activity remaining was determined by measuring the integrated optical density of the bands relative to a DMSO-only (no compound) control. Assay Cutoff: Compounds with ≥50% inhibition of targets at 1 μM test compound concentration were considered active.
# N-Hydroxy bicyclic hydantoin carbamates (Compounds 1-20) listed in Table 1 were subjected to gel-based competitive ABPP screening to assess SH reactivity against more than 20 FP-sensitive SHs visible by 1D SDS-PAGE separation and fluorescent detection in the mouse brain proteome (see FIG. 1). […] Compound treatment ([…], 30 minutes) was followed by labeling with SH-specific ABPP probe FP-Rh (2 μM, 30 minutes), 1D-SDS-PAGE, and in-gel fluorescent visualization of FP-labeled proteins. […]
structure (smiles),measurement,setting,value
"CN(C)c1ccc(C(=O)N2CCN3C(=O)N(OC(=O)N4CCC(CCc5ccc(Cl)cc5)CC4)C(=O)C3C2)cc1 (stereo not drawn) [Compound 10, 7-(4-(dimethylamino)benzoyl)-1,3-dioxohexahydroimidazo[1,5-a]pyrazin-2(3H)-yl4-(4-chlorophenethyl)piperidine-1-carboxylate]",Anti-target(s) 1 μM,SHs with at least 50% inhibition at 1 μM compound,ABHD6
same,Anti-target(s) 10 μM,SHs with at least 50% inhibition at 10 μM compound,"FAAH,; also recorded: ABHD12,; also recorded: ABHD6"
same,Anti-target(s) 100 μM,SHs with at least 50% inhibition at 100 μM compound,"FAAH,; also recorded: ABHD12,; also recorded: ABHD6"
